In the supplement of paper PMC6119338:
This is one part of the list. Many values rest on one well or one pass, so single values are uncertain.

What follows are compounds tested on Plasmodium berghei sporozoites (assay: residual sporozoite gliding motility relative to DMSO control; higher = less inhibition of motility). Conditions: 10 µM; incubation time 30 min.

Residual sporozoite gliding motility, > 50%:
CCCCOc1ccc(C(=O)Nc2cc(C)on2)cc1
Cc1ccc(Cn2c(N3CCC(C(=O)NCc4cccs4)CC3)nc3ccccc32)cc1
c1ccc(Cn2c(N=Nc3c(Nc4ccccc4)ccc4ccccc34)nc3ccccc32)cc1
CCN(CC)CCNc1ccnc2cc(Cl)ccc12
CC(C)OCc1cc(CN2CCN(c3cccc(Cl)c3)CC2)c(O)c2ncccc12
COc1ccc(-c2nonc2NC(=O)c2cccc(Cl)c2)cc1OC
CCN(CC)c1cc(C)c2cc(NC(=O)c3cccc(OC)c3)ccc2n1
CCCN(CCC)CCCNC(=O)c1cc2c(-c3ccc(OC)c(OC)c3)nn(C)c2s1
Clc1cc(Br)ccc1-c1ccc(CNCC2CCNCC2)o1
CCOC(=O)c1ccc2nc(-c3ccccc3)cc(O)c2c1
COc1ccc(C(=O)NC(c2ccc(Cl)cc2Cl)c2cc(Cl)c3cccnc3c2O)cc1 (stereo not drawn)
CCOc1cc2c(cc1OCC)C(c1cc(C)c(O)c(C)c1)NCC2 (stereo not drawn)
O=C(NCCCN1CCC(N2CCCCC2)CC1)C1=Cc2cc(Br)ccc2OC1
Oc1ccccc1CN1CCC2(CCCN(Cc3ccccc3F)C2)C1 (stereo not drawn)
COc1ccc2nc(C)cc(Nc3ccccc3O)c2c1
O=C(NCc1ccco1)C1CCN(S(=O)(=O)c2ccc(Cl)cc2)CC1
CCC(=O)Nc1nnc(Cc2ccc(OC)c(OC)c2)s1
Cc1ccc(Cl)cc1N1CCN(CCCNC(=O)C2CCN(c3nc4ccccc4[nH]3)CC2)CC1

An excerpt from above in order of molecular weight, smallest number first:
Residual sporozoite gliding motility, > 50%:
CCCCOc1ccc(C(=O)Nc2cc(C)on2)cc1
CCN(CC)CCNc1ccnc2cc(Cl)ccc12
Cc1ccc(Cn2c(N3CCC(C(=O)NCc4cccs4)CC3)nc3ccccc32)cc1
